Assay results taken from patent US20210017280A1.
Results are given in words; binding and its absence hold for the method and conditions named. Some binding calls cover weakened binding; strength is not graded here.

Amino acid sequences for entries named in this document (tags omitted). A change or cut given only in a name is not applied to a line headed by its entry.
UniProt P20273: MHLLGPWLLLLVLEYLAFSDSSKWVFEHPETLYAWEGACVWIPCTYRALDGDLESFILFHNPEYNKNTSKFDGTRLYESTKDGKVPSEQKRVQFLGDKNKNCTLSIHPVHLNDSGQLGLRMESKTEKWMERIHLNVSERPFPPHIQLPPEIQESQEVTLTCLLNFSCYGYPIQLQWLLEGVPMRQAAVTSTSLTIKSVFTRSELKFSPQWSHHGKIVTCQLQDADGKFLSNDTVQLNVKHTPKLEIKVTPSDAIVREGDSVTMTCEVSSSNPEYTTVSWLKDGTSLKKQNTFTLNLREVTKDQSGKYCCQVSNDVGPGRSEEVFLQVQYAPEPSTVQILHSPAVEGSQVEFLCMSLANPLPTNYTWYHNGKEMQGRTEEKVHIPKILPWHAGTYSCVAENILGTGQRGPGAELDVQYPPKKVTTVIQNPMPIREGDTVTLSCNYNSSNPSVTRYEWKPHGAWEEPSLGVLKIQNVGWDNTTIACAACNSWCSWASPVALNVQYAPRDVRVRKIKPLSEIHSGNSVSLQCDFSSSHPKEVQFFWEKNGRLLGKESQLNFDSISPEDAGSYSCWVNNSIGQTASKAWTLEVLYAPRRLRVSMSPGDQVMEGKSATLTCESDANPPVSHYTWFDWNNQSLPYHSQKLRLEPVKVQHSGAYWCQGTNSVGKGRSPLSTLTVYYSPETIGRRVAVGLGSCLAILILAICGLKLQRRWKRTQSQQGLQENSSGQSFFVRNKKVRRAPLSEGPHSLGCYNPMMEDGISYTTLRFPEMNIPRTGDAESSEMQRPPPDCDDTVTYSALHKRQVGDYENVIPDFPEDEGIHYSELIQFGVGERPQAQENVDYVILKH

Target: full-length human CD22 (human) (UniProt P20273)
Test: flow cytometry competition on K562+CD22 cells

binding: binds
B1: anti-CD22 CAR (clone 2) conjugated to biotin, used as detecting antibody (antibody, V domains shown)
VH: QVQLVESGGGLVQPGGSLRLSCAASGFTFSNYAMSWVRQAPGKGLEWVSSISGSGGSTYYADSVKGRFTISRDTSKNTLYLQMNSLRAEDTAVYYCARYGSAAWMDSWGQGTLVTVSS
VL: DIQLTQSPSSLSTSVGDRVTITCQASHDIRNYLNWYQQKPGKAPNLLIYAASNLQTGVPSRFSGRGSGTDFTLTISSLQPEDIATYYCQQYDGLPLTFGQGTRLEIKR
modifications: conjugated to biotin (chain and site not stated)
